Measurements reported in PubChem BioAssay AID1259327 (Drosophila RNAi Screening Center, 2017)

- Assay: 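Baseline ATP after transmembrane-protein gene knock-down with water vehicle only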
- Cells: Drosophila S2R+ cells
- Reagents: long dsRNA against Drosophila genes
- Duration: 5 days (water added on day 4, read one day later)
- Conditions: water added as vehicle, no metal, one day before read-out
- Measurement: 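Total ATP measured by luciferase light, scaled to plate mean, duplicates averaged, then z-scored across plates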
- Direction: ATP z-score: higher = more total ATP than typical wells; ATP luminescence: higher = more total ATP
- Hit rule: 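a hit is any knock-down whose absolute ATP z-score is greater than 1.5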
- Calls: active = hit: ATP up or down; inactive = no clear ATP change
Here is an unselected part of about 3,100 deposited reagents. In the full data, 378 (12%) are marked active. 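Hits include both directions; z-score sign shows ATP rise or fall; raw luminescence values are not plate-normalised.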 Unmarked entries are inactive. Reagents against one gene are numbered here. Not given: the amount of reagent.

Nhe3 (Na[+]/H[+] hydrogen exchanger 3) #1 gave ATP z-score, duplicate mean 0.838; ATP luminescence, replicate 1 (RLU) = 7.72e5; ATP luminescence, replicate 2 (RLU) = 8.57e5.
Against Nhe3 (Na[+]/H[+] hydrogen exchanger 3) #2, the values are ATP z-score, duplicate mean 1.4; ATP luminescence, replicate 1 (RLU) = 5.43e5; ATP luminescence, replicate 2 (RLU) = 6.14e5.
With knock-down of CG43795 #1, the record shows ATP z-score, duplicate mean -0.307; ATP luminescence, replicate 1 (RLU) = 7.07e5; ATP luminescence, replicate 2 (RLU) = 6.80e5.
Against CG43795 #2 the deposit lists ATP z-score, duplicate mean -0.911; ATP luminescence, replicate 1 (RLU) = 6.47e5; ATP luminescence, replicate 2 (RLU) = 6.12e5.
Depletion of CG43795 #3 came out at: ATP z-score, duplicate mean 2.05 (active); ATP luminescence, replicate 1 (RLU) = 1.02e6; ATP luminescence, replicate 2 (RLU) = 8.74e5.
After knock-down of CG2901 #1, the screen gave ATP z-score, duplicate mean -0.584; ATP luminescence, replicate 1 (RLU) = 7.63e5; ATP luminescence, replicate 2 (RLU) = 7.26e5.
CG2901 #2 gave ATP z-score, duplicate mean 0.775; ATP luminescence, replicate 1 (RLU) = 4.98e5; ATP luminescence, replicate 2 (RLU) = 5.10e5.
For C1GalTA (Core 1 Galactosyltransferase A) the deposit lists ATP z-score, duplicate mean 1.14; ATP luminescence, replicate 1 (RLU) = 4.65e5; ATP luminescence, replicate 2 (RLU) = 6.60e5.
Npl4 (Nuclear protein localization 4) #1 showed ATP z-score, duplicate mean 0.477; ATP luminescence, replicate 1 (RLU) = 7.75e5; ATP luminescence, replicate 2 (RLU) = 7.35e5.
Knock-down of Npl4 (Nuclear protein localization 4) #2 came out at: ATP z-score, duplicate mean 0.402; ATP luminescence, replicate 1 (RLU) = 3.43e5; ATP luminescence, replicate 2 (RLU) = 7.39e5.
With knock-down of CG4615 #1, the screen gave ATP z-score, duplicate mean -1.19; ATP luminescence, replicate 1 (RLU) = 5.24e5; ATP luminescence, replicate 2 (RLU) = 4.99e5.
Against CG4615 #2, the values are ATP z-score, duplicate mean 1.32; ATP luminescence, replicate 1 (RLU) = 8.44e5; ATP luminescence, replicate 2 (RLU) = 8.40e5.
For CG4615 #3, the values are ATP z-score, duplicate mean -1.04; ATP luminescence, replicate 1 (RLU) = 9.04e5; ATP luminescence, replicate 2 (RLU) = 9.20e5.
After knock-down of CNMaR (CNMamide Receptor) #1, the screen gave ATP z-score, duplicate mean -1.23; ATP luminescence, replicate 1 (RLU) = 5.50e5; ATP luminescence, replicate 2 (RLU) = 6.71e5.
CNMaR (CNMamide Receptor) #2 showed ATP z-score, duplicate mean -0.359; ATP luminescence, replicate 1 (RLU) = 8.79e5; ATP luminescence, replicate 2 (RLU) = 8.20e5.
After knock-down of PGRP-SC1a (Peptidoglycan recognition protein SC1a), the screen gave ATP z-score, duplicate mean 1.27; ATP luminescence, replicate 1 (RLU) = 7.07e5; ATP luminescence, replicate 2 (RLU) = 7.63e5.
With knock-down of CG32795 #1 the results were ATP z-score, duplicate mean 0.259; ATP luminescence, replicate 1 (RLU) = 7.15e5; ATP luminescence, replicate 2 (RLU) = 8.30e5.
For CG32795 #2 the deposit lists ATP z-score, duplicate mean -0.103; ATP luminescence, replicate 1 (RLU) = 7.10e5; ATP luminescence, replicate 2 (RLU) = 7.54e5.
After knock-down of Elo68alpha (Elongase 68alpha) the results were ATP z-score, duplicate mean -0.842; ATP luminescence, replicate 1 (RLU) = 5.01e5; ATP luminescence, replicate 2 (RLU) = 5.16e5.
With knock-down of CapaR (Capability receptor) #1 the results were ATP z-score, duplicate mean 0.676; ATP luminescence, replicate 1 (RLU) = 1.02e6; ATP luminescence, replicate 2 (RLU) = 8.52e5.
For CapaR (Capability receptor) #2 the deposit lists ATP z-score, duplicate mean -0.179; ATP luminescence, replicate 1 (RLU) = 4.40e5; ATP luminescence, replicate 2 (RLU) = 4.67e5.
For Abcd3 (ATP binding cassette subfamily D member 3) #1, the values are ATP z-score, duplicate mean 0.104; ATP luminescence, replicate 1 (RLU) = 7.26e5; ATP luminescence, replicate 2 (RLU) = 7.83e5.
Abcd3 (ATP binding cassette subfamily D member 3) #2 scored ATP z-score, duplicate mean -0.382; ATP luminescence, replicate 1 (RLU) = 8.09e5; ATP luminescence, replicate 2 (RLU) = 7.47e5.
For Nup93-2 (Nucleoporin 93kD-2), the entry reads ATP z-score, duplicate mean 0.589; ATP luminescence, replicate 1 (RLU) = 8.27e5; ATP luminescence, replicate 2 (RLU) = 7.08e5.
After knock-down of Gr22b (Gustatory receptor 22b), the screen gave ATP z-score, duplicate mean 0.412; ATP luminescence, replicate 1 (RLU) = 8.16e5; ATP luminescence, replicate 2 (RLU) = 7.56e5.
Against CG10481 #1 the deposit lists ATP z-score, duplicate mean -0.207; ATP luminescence, replicate 1 (RLU) = 7.15e5; ATP luminescence, replicate 2 (RLU) = 6.93e5.
CG10481 #2 showed ATP z-score, duplicate mean -1.12; ATP luminescence, replicate 1 (RLU) = 4.14e5; ATP luminescence, replicate 2 (RLU) = 3.45e5.
For wfs1 (wolfram syndrome 1), the values are ATP z-score, duplicate mean 1.92 (active); ATP luminescence, replicate 1 (RLU) = 4.42e5; ATP luminescence, replicate 2 (RLU) = 8.24e5.
After knock-down of mthl5 (methuselah-like 5) #1, the screen gave ATP z-score, duplicate mean -0.49; ATP luminescence, replicate 1 (RLU) = 2.29e5; ATP luminescence, replicate 2 (RLU) = 8.31e5.
For mthl5 (methuselah-like 5) #2, the values are ATP z-score, duplicate mean -0.00574; ATP luminescence, replicate 1 (RLU) = 4.52e5; ATP luminescence, replicate 2 (RLU) = 4.53e5.

Records listed so far marked active (2):
CG43795 #3 — ATP z-score, duplicate mean = 2.05 (active); ATP luminescence, replicate 1 (RLU) = 1.02e6; ATP luminescence, replicate 2 (RLU) = 8.74e5
wfs1 (wolfram syndrome 1) — ATP z-score, duplicate mean = 1.92 (active); ATP luminescence, replicate 1 (RLU) = 4.42e5; ATP luminescence, replicate 2 (RLU) = 8.24e5
